Source: patent US5571518A, “Cosmetic compositions containing tricholine citrate” (priority 1995, dated 1996)
At least one structure is not confirmed: it was looked up by name or label, or the drawing left a doubt.

Assays:
human keratinocytes [1] = assay: Cornified envelope (CE) formation, marker of terminal differentiation of keratinocytes; type: cell-based; conditions: summary of Example 2
Protocol: (§1) Human keratinocytes, isolated from neonatal foreskin by trypsin treatment were grown in Dulbecco Modification Eagle (DME) Hams F12 (3:1) medium/5% fetal calf serum in the presence of mitomycin C treated 3T3 mouse fibroblasts for establishing dividing keratinocyte colonies. Cells were grown under the above condition until their second passage and kept frozen for future use. Frozen second passage keratinocytes were thawed and plated into the above medium and grown for five days. On day 5, when the cells were 70-80% confluent, they were trypsinized and plated in the serum-free medium for the various experiments.
During the process of terminal differentiation in the epidermis, a 15 nm thick layer of protein, known as the cornified envelope (CE)is formed on the inner surface of the cell periphery. The CE is composed of numerous distinct proteins which have been cross-linked together by the formation of N ^ε -(-γ-glutamyl) lysine isodipeptide bonds catalyzed by the action of at least two different transglutaminases expressed in the epidermis. Transglutaminase (TG-1) is expressed in abundance in the differentiated layers of the epidermis, especially the granular layer, but is absent in the undifferentiated basal epidermis. […]
Proper skin conditioning require enhanced proliferation and differentiation of epidermal keratinocytes. […] Levels are expressed as % of control ±SD. […]

[2] = tested on: photodamaged and/or hyperpigmented skin; conditions: background, prior art; cited from earlier work
Transglutaminase (TG-1) = assay: Transglutaminase I levels in keratinocytes (ELISA based TG-1 assay); type: cell-based, human; conditions: 48 hour treatment
Protocol: as §1, with “experiments. […]” for “experiments.”
The level of TG-1 was measured as follows. […] The DNA content of the cells in the wells were first determined before the TG-1 assay.
TG-1 levels of the cells in the wells were determined using the TG-1 specific monoclonal antibody (BC1) (first antibody) (obtained from Amersham Life Sciences) and using a peroxidase labelled rabbit antimouse IgG fragment (second antibody). […] The optical density was read at 410 nm in a microtiter plate reader and the TG-1 levels were calculated as OD/DNA fluorescence. […] Results are expressed as % of control.
Cornified envelope formation is determined by the activity of transglutaminase enzyme which cross-links all the envelope precursor proteins to form the envelope. […]

human keratinocytes [3] = assay: DNA synthesis in keratinocytes (3H-thymidine incorporation, keratinocyte proliferation); type: cell-based; conditions: 24 hours exposure
Excerpt: The incorporation of ^3 H-thymidine by cultured keratinocytes was used as an assay of keratinocyte proliferation. Thymidine is one of four deoxynucleosides which are the monomeric units of DNA, the universal library of genetic information in the animal kingdom. Prior to cell division of a somatic cell such as a keratinocyte, the complete genome of the cell undergoing cell division is replicated. This involves large scale DNA synthesis by the cell and enables both daughter cells to receive identical copies of the genetic material. When ^3 H-thymidine is included in the culture media of keratinocytes which are synthesizing DNA in preparation for cell division then the labelled nucleoside is incorporated into the newly synthesized DNA. […]
3. […] The cells were incubated overnight and 24 hours later the amount of ^3 H-thymidine associated with the cellular DNA of keratinocytes was assessed as described below.
4. […] 8 ml of a scintillation fluid (Ecolume) was added to the rest of the solution in the vial, and the vials were counted in a scintillation counter to determine the amount of radioactivity in each vial. The DNA synthesis rate was then calculated as cpm ^3 H thymidine incorporated into total cellular DNA/microgram of cell protein for each individual well.

SMILES | keratinocyte differentiation, result in words (human keratinocytes [1]) | effect on photodamaged and/or hyperpigmented skin, in words [2] | transglutaminase, result in words (Transglutaminase (TG-1)) | inhibitory concentration relative to citric acid, in words (human keratinocytes [3])
CCCCOC(=O)CC(O)(CC(=O)OCCCC)C(=O)OCCCC [TBC, tributylcitrate] | inhibited differentiation | effective in the treatment of photodamaged and/or hyperpigmented skin | inhibited the enzyme | inhibitory at lower concentrations than citric acid
CCOC(=O)CC(O)(CC(=O)OCC)C(=O)OCC [TEC, triethylcitrate] | inhibited differentiation | effective in the treatment of photodamaged and/or hyperpigmented skin | inhibited the enzyme | inhibitory at lower concentrations than citric acid
